± gives the standard deviation. The entries are a selection whose mix differs from that of the whole data set. Many entries were measured with a wide error.

This assay deals with MIWI (PIWIL1) piRISC loaded with piRNA #1 (30 nt). Description: pre-steady-state target cleavage rate (min^-1); MIWI and MILI are mouse PIWI proteins and EfPiwi is from a freshwater sponge; tags in brackets are library labels; higher = faster piRNA-guided slicing of the target. To be noted: guide: piRNA #1 5'p-UGAGGUAGUAGGUUGUAUAGUAUCCAGAGG; auxiliary factor: 500 nM mouse GTSF1. In outline:
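The method was Cleave-'n-Seq, in which uncleaved targets from a transcribed, DNA-blocked target RNA library were sequenced after exposure to active affinity-purified piRISC carrying one synthetic guide, with or without GTSF1 partner protein. Reactions contained 0.1 nM library, 1 nM piRISC and, where present, 500 nM GTSF1 in HEPES–potassium acetate buffer at 33 °C for 0–8 or 0–960 min. Reads were normalised to depth and to weakly complementary targets, three trials were pooled, and k3 was capped at 0.0001 min^-1. The pre-steady-state cleavage rate came from a burst-and-steady-state fit.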
For GGUCUGGAUACUAUAUAACCUACUACCUCA, the “pre-steady-state target cleavage rate” value was 1.86 ± 0.1.

For GGUCUGGAUACUAUAGAACCUAGUACCUCA, the “pre-steady-state target cleavage rate” value came to 0.000807 ± 0.0047.

As for CCUCUGGUUUCUAUACAACCUACUACCUCA, the “pre-steady-state target cleavage rate” value is 2.25 ± 0.15.

As for GGAGACCUAUGAUUACAACCUACUACCUAA, the “pre-steady-state target cleavage rate” value amounted to 0.00042 ± 0.0078.

For GGAGACCUAUGAUAACAUCCUACAACCUCA, the “pre-steady-state target cleavage rate” value turned out to be 0.000121 ± 0.015.

As for GGACUGGAUACUAUACAAUCCUACUACCUCA, the “pre-steady-state target cleavage rate” value is 0.000411 ± 0.023.

For CCUCUGGAUACUAUACAACCUACUAACCUCA, the “pre-steady-state target cleavage rate” value came to 2.09 ± 0.13.

CCUCUCGAUACAAUACAACCUACUACCUCA: the “pre-steady-state target cleavage rate” value turned out to be 2.17 ± 0.14.

For GGAGACCUAUGAAUUCAACCUACUACCUCA, the “pre-steady-state target cleavage rate” value was found to be 0.000254 ± 0.011.

As for GCUCUGGAUACCAUACAACCUACUACCUCA, the “pre-steady-state target cleavage rate” value came to 0.756 ± 0.059.

Consider GGACUGGAUACUAUACAACUCUACUACCUCA, for which the “pre-steady-state target cleavage rate” value was determined as 0.000241 ± 0.036.

Take GCUCUGGAUAGAUUACAACCUACUACCUCA: the “pre-steady-state target cleavage rate” value came out at 0.735 ± 0.048.

In the case of GGAGACCUAUGAUAUGUUCCUUCUACCUGA, the “pre-steady-state target cleavage rate” value was found to be 0.000282 ± 0.013.

Turning to GGAGAGGUUACUAAACAACCUACUACCUCA, the “pre-steady-state target cleavage rate” value was found to be 1.21 ± 0.08.

Regarding CCUCUGCAUACUAUACAACCUACUACCUCA, the “pre-steady-state target cleavage rate” value was 2.01 ± 0.12.

Consider GGAGACCUUACUAUACAACCAUACUACCUCA, for which the “pre-steady-state target cleavage rate” value came out at 0.00061 ± 0.0088.

With GGAGACCUAUGAUAUGUUCCUCCUACCUCA, the “pre-steady-state target cleavage rate” value turned out to be 0.000167 ± 0.015.

In the case of GGAGACCUUACUAUUGUACCUACUACCUCA, the “pre-steady-state target cleavage rate” value came out at 0.00136 ± 0.0041.

Turning to GGAGACCUAUGAUUACAACCUACUACCGCA, the “pre-steady-state target cleavage rate” value is 0.00152 ± 0.0054.

On to CCUCUGGAUACUAUUCAACCUAGUACCUCA, for which the “pre-steady-state target cleavage rate” value amounted to 0.085 ± 0.021.

Take GGAGACCUAUGAUAUGUUGGUACAUACCUCA: the “pre-steady-state target cleavage rate” value came out at 0.000533 ± 0.01.

As for GGUCUGCAUACUAUACAACCUACUACCUCA, the “pre-steady-state target cleavage rate” value came out at 1.71 ± 0.1.

Consider GGAGACCUAUGAUUACAACCGUACUACCUCA, for which the “pre-steady-state target cleavage rate” value is 0.000282 ± 0.0099.

GGAGACCUAUCUUUACAACCAACUACCUCA: the “pre-steady-state target cleavage rate” value came out at 0.00171 ± 0.0049.

Turning to GGAGACCUAUGAUAUGUUGGUACUACGAGA, the “pre-steady-state target cleavage rate” value turned out to be 0.000307 ± 0.024.

With CCUCUGGAUACUAUACAACCUCCUACCUCA, the “pre-steady-state target cleavage rate” value is 1.32 ± 0.068.

Regarding GGAGACCUAUGUUUACAACCUACUACCACA, the “pre-steady-state target cleavage rate” value was 0.00169 ± 0.0045.

For GGACUGGAUACUAUACAACCUACAACCACA, the “pre-steady-state target cleavage rate” value was determined as 0.000825 ± 0.0049.

Take CCUCUCGAUACUAUACAACCUACUACCUCA: the “pre-steady-state target cleavage rate” value was 2.01 ± 0.12.

On to CCUCUCGAUACUAUACAACCUACUACCUGA, for which the “pre-steady-state target cleavage rate” value was found to be 0.985 ± 0.087.

With GGAGAGGAUACUAUACAACCUACACCUCA, the “pre-steady-state target cleavage rate” value was 0.00119 ± 0.0063.

For the sequence GGAGACCUAUGUAUUCAACCUACUACCUGA, the “pre-steady-state target cleavage rate” value came to 0.000294 ± 0.0061.

On to GCUCUGGAUAGUAUACAACCUACUACCUGA, for which the “pre-steady-state target cleavage rate” value was determined as 0.324 ± 0.045.

As to GGUCUGGAUACUAUACAAGCCUACUACCUCA, the “pre-steady-state target cleavage rate” value turned out to be 0.000939 ± 0.0083.

Take GCUCACGAUACUAUACAACCUACUACCUCA: the “pre-steady-state target cleavage rate” value worked out at 1.83 ± 0.092.

On to GGUCUGGAUACUAUACAAUCCUACUACCUCA, for which the “pre-steady-state target cleavage rate” value is 0.000826 ± 0.0086.

For the sequence GGACUGGAUACUAUACAACCUACUCCUCA, the “pre-steady-state target cleavage rate” value worked out at 0.00205 ± 0.0044.

Consider CCUCUGGUUACUAUACAACCUACAACCUCA, for which the “pre-steady-state target cleavage rate” value turned out to be 1.28 ± 0.089.

Regarding GGUCUGGUUACUUUACAACCUACUACCUCA, the “pre-steady-state target cleavage rate” value came to 1.69 ± 0.13.

Take GGAGACCUAUGAUAUGUUCCUACUACCUGCA: the “pre-steady-state target cleavage rate” value stood at 0.000103 ± 0.032.

These data come from the supplement of paper PMC10338343.
